PubChem BioAssay AID1224830 | NIAID – 2016
This is a random part of about 18,000 reagents tested. About 2,900 of them (16%) count as active. 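Calls are made per well; low scores hint the gene aids the LPS response, high scores that it dampens it.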 The numbers tell different reagents against one gene apart. Repeated entries: four replicate wells of each siRNA pool.

- Aim: 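Host factors that control LPS-induced TNF expression in human macrophages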 (primary screen)
- System: human THP-1 monocytic leukaemia cells, TNF dual-luciferase reporter clone, PMA-differentiated to macrophage-like cells
- Reagents: siRNA pool against human genes, 50 nM
- Duration: LPS for 4 h, given about 3 days after siRNA transfection
- Conditions: bacterial LPS (TLR4 ligand), 10 ng/ml
- Measured: 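TNF firefly reporter luminescence divided by renilla, normalised to the plate median, then turned into a robust z-score for each replicate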
- Reading the numbers: TNF reporter robust z-score: higher = stronger TNF reporter response to LPS
- Hit rule: 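a well is active when its z-score exceeds 2.8 or falls below -1.5; control wells carry no call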

| gene knocked down | pool no. | TNF reporter robust z-score | Call |
| --- | --- | --- | --- |
| ATP6AP2 | 1 | – | inactive |
| ATP6AP2 | 1 | -1.03 | inactive |
| ATP6AP2 | 1 | -0.97 | inactive |
| ATP6AP2 | 1 | -0.99 | inactive |
| IGFBPL1 | 1 | 0.08 | inactive |
| IGFBPL1 | 1 | 0.46 | inactive |
| IGFBPL1 | 1 | 1.3 | inactive |
| IGFBPL1 | 1 | 2.39 | inactive |
| TBC1D22A | 1 | -0.32 | inactive |
| TBC1D22A | 1 | -0.92 | inactive |
| TBC1D22A | 1 | -0.8 | inactive |
| TBC1D22A | 1 | -0.33 | inactive |
| RFT1 | 1 | -0.05 | inactive |
| RFT1 | 1 | 0.33 | inactive |
| RFT1 | 1 | 0.23 | inactive |
| RFT1 | 1 | 0.7 | inactive |
| ABCC10 | 1 | -0.95 | inactive |
| ABCC10 | 1 | -1.19 | inactive |
| ABCC10 | 1 | -1.38 | inactive |
| ABCC10 | 1 | -1.12 | inactive |
| DRG2 | 1 | -0.25 | inactive |
| DRG2 | 1 | 0.76 | inactive |
| DRG2 | 1 | -0.48 | inactive |
| DRG2 | 1 | 0.6 | inactive |
| BZW2 | 1 | -1.41 | inactive |
| BZW2 | 1 | 1 | inactive |
| BZW2 | 1 | 0.62 | inactive |
| BZW2 | 1 | 0.83 | inactive |
| HMHB1 | 1 | -0.51 | inactive |
| HMHB1 | 1 | -0.05 | inactive |
| HMHB1 | 1 | -1.25 | inactive |
| HMHB1 | 1 | -0.02 | inactive |
| ZNF239 | 1 | -0.84 | inactive |
| ZNF239 | 1 | -0.74 | inactive |
| ZNF239 | 1 | 0.65 | inactive |
| ZNF239 | 1 | 0.45 | inactive |
| LOXL4 | 1 | -0.09 | inactive |
| LOXL4 | 1 | 0.7 | inactive |
| LOXL4 | 1 | -0.98 | inactive |
| LOXL4 | 1 | 1.99 | inactive |
| SLC6A5 | 1 | 0.06 | inactive |
| SLC6A5 | 1 | 2.2 | inactive |
| SLC6A5 | 1 | -0.93 | inactive |
| SLC6A5 | 1 | -0.46 | inactive |
| DPEP2 | 1 | 0.38 | inactive |
| DPEP2 | 1 | -0.35 | inactive |
| DPEP2 | 1 | 0.8 | inactive |
| DPEP2 | 1 | 0.63 | inactive |
| JAG2 | 1 | -0.9 | inactive |
| JAG2 | 1 | -0.53 | inactive |
| JAG2 | 1 | -0.26 | inactive |
| JAG2 | 1 | 0.18 | inactive |
| CD2 | 1 | -0.38 | inactive |
| CD2 | 1 | -0.21 | inactive |
| CD2 | 1 | -0.34 | inactive |
| CD2 | 1 | 0.06 | inactive |
| GLP1R | 1 | -0.2 | inactive |
| GLP1R | 1 | -0.36 | inactive |
| GLP1R | 1 | -0.59 | inactive |
| GLP1R | 1 | -0.14 | inactive |
| NRIP1 | 1 | 0.24 | inactive |
| NRIP1 | 1 | -0.17 | inactive |
| NRIP1 | 1 | 0.37 | inactive |
| NRIP1 | 1 | 0.05 | inactive |
| DIRC1 | 1 | -0.29 | inactive |
| DIRC1 | 1 | -0.54 | inactive |
| DIRC1 | 1 | -0.24 | inactive |
| DIRC1 | 1 | 1.13 | inactive |
| REEP1 | 1 | 0.26 | inactive |
| REEP1 | 1 | 1.62 | inactive |
| REEP1 | 1 | 0.68 | inactive |
| REEP1 | 1 | 1.99 | inactive |
| CIAPIN1 | 1 | -1.08 | inactive |
| CIAPIN1 | 1 | -1.35 | inactive |
| CIAPIN1 | 1 | -1.16 | inactive |
| CIAPIN1 | 1 | -1.22 | inactive |
| TOPORS | 1 | 0.01 | inactive |
| TOPORS | 1 | -0.37 | inactive |
| TOPORS | 1 | -0.26 | inactive |
| TOPORS | 1 | 0.66 | inactive |
| C19orf18 | 1 | 1.42 | inactive |
| C19orf18 | 1 | 2.03 | inactive |
| C19orf18 | 1 | 0.44 | inactive |
| C19orf18 | 1 | 1.04 | inactive |
| FERRY3 | 1 | – | inactive |
| FERRY3 | 1 | -0.22 | inactive |
| FERRY3 | 1 | -0.43 | inactive |
| FERRY3 | 1 | -0.72 | inactive |
| KCNK16 | 1 | -0.77 | inactive |
| KCNK16 | 1 | -0.65 | inactive |
| KCNK16 | 1 | -0.6 | inactive |
| KCNK16 | 1 | 1.15 | inactive |
| DNHD1 | 1 | 1.39 | inactive |
| DNHD1 | 1 | 1.92 | inactive |
| DNHD1 | 1 | 1.8 | inactive |
| DNHD1 | 1 | 1.23 | inactive |
| DNHD1 | 2 | 1.02 | inactive |
| DNHD1 | 2 | -0.55 | inactive |
| DNHD1 | 2 | 1.22 | inactive |
| DNHD1 | 2 | 0.13 | inactive |
| CHRNA9 | 1 | 0.1 | inactive |
| CHRNA9 | 1 | -0.93 | inactive |
| CHRNA9 | 1 | 0.15 | inactive |
| CHRNA9 | 1 | 0.22 | inactive |
| GOT2 | 1 | – | inactive |
| GOT2 | 1 | -0.13 | inactive |
| GOT2 | 1 | -0.73 | inactive |
| GOT2 | 1 | -0.32 | inactive |
| GOT2 | 1 | -0.3 | inactive |
| SLCO1B3 | 1 | 0.16 | inactive |
| SLCO1B3 | 1 | 0.7 | inactive |
| SLCO1B3 | 1 | 0.44 | inactive |
| SLCO1B3 | 1 | 0.84 | inactive |

Records above whose gene name starts with S or s (8):
| gene knocked down | pool no. | TNF reporter robust z-score | Call |
| --- | --- | --- | --- |
| SLC6A5 | 1 | 0.06 | inactive |
| SLC6A5 | 1 | 2.2 | inactive |
| SLC6A5 | 1 | -0.93 | inactive |
| SLC6A5 | 1 | -0.46 | inactive |
| SLCO1B3 | 1 | 0.16 | inactive |
| SLCO1B3 | 1 | 0.7 | inactive |
| SLCO1B3 | 1 | 0.44 | inactive |
| SLCO1B3 | 1 | 0.84 | inactive |
